Assay results reported in patent publication US8415299B2, “Methods for improved avian performance” (priority 2004, dated 2013).
Where two headings read alike, the source gives them in different places. Further values from the same series stand in other lists.

Test system: Cobb broiler breeder hens and roosters
Format: in vivo

N[C@@H](Cc1cc(I)c(Oc2cc(I)c(O)c(I)c2)c(I)c1)C(=O)O [L-thyroxine, 3,5,3′,5′-tetraiodothyronine]
# Eggs per pen (25 ppm feed from 22-Sep, pen 50, 5-Nov): 0 | # Eggs per pen (25 ppm feed from 22-Sep, pen 50, 6-Nov): 0 | # Eggs per pen (25 ppm feed from 22-Sep, pen 50, 7-Nov): 0 | # Eggs per pen (25 ppm feed from 22-Sep, pen 50, 13-Sep): 20 | # Eggs per pen (25 ppm feed from 22-Sep, pen 50, 14-Sep): 16 | # Eggs per pen (25 ppm feed from 22-Sep, pen 50, 15-Sep): 11 | # Eggs per pen (40 ppm feed from 22-Sep, pen 51, 5-Nov): 5 | # Eggs per pen (40 ppm feed from 22-Sep, pen 51, 6-Nov): 4 | # Eggs per pen (40 ppm feed from 22-Sep, pen 51, 7-Nov): 4 | # Eggs per pen (40 ppm feed from 22-Sep, pen 51, 13-Sep): 16 | # Eggs per pen (40 ppm feed from 22-Sep, pen 51, 14-Sep): 21 | # Eggs per pen (40 ppm feed from 22-Sep, pen 51, 15-Sep): 15
